In assay [1] the target is T1, IL-17RA-ECD-His (UniProt Q96F46).
T1 sequence (looked up): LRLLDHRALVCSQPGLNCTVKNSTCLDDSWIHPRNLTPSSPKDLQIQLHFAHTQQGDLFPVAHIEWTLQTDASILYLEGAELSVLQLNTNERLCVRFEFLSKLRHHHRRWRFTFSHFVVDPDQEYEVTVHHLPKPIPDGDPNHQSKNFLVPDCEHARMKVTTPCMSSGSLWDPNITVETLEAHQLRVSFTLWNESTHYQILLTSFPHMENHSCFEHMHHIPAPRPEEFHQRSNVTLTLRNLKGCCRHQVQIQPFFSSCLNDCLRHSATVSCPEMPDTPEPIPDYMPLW
The assay is described as follows: phage ELISA, serial dilution, IL-17RA-ECD-His coated. For orientation: ELISA stands for enzyme-linked immunosorbent assay.

The target in assay [2] is T2, 过表达IL-17RA的CHO细胞表面的IL-17RA (UniProt Q96F46).
T2 sequence (looked up): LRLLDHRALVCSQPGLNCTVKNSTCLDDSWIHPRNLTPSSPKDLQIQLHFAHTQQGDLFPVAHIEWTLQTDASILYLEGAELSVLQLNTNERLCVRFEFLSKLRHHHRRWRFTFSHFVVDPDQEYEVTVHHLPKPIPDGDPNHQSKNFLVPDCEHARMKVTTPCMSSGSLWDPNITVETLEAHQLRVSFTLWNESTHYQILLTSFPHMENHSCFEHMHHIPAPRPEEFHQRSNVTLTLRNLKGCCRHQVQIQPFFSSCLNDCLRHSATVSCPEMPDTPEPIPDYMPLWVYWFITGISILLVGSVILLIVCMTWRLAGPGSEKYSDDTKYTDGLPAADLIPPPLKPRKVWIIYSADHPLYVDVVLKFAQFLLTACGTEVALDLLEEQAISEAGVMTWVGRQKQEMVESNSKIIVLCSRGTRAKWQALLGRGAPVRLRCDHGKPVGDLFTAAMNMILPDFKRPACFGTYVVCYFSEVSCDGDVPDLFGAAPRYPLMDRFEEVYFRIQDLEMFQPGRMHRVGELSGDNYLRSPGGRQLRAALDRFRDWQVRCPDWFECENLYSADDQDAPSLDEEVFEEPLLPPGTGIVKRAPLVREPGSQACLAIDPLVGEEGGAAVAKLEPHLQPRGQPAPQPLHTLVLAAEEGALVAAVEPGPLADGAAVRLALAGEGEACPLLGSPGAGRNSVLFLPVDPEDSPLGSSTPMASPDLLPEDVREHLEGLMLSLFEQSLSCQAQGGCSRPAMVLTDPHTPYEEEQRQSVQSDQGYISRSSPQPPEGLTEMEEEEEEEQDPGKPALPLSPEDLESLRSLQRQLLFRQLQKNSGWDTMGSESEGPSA
The assay is described as follows: flow cytometry on CHO cells overexpressing IL-17RA. (In flow cytometry, cells or beads pass a laser one at a time.)

Assay [3] has as its target T1, IL-17RA-ECD-His. The assay is described as follows: ELISA, IL-17RA-ECD-His coated, full antibody.

No constants are given. Whether binding was seen depends on the method and setting. Some binding calls cover weakened binding; strength is not graded here. For part of these data: Where a sequence is shown, tags or fusion partners need not be part of it.

B1: mAb-1单克隆纯化噬菌体 (scFv, V domains shown)
VH: QVQLVQSGAEVKKPGASVKVSCKASGYSYSNYGISWVRQAPGQGLEWMGWISTYSGNTNYSKKLKGRVTMTTDTSTSTAYMELRSLRSDDTAVYYCARRVLRLDYWGQGTLVTVSS
VL: DIQMTQSPSSLSASVGDRVTITCRASQDIDSSLNWYQQKPGKAPKLLIYAASNRESGVPSRFSGSGSGTDFTLTISSLQPEDFATYYCQQWANMPGTFGQGTKVEIK
Take B1: in the assay with IL-17RA-ECD-His [1], the binding result was “binds”.

B2: mAb-4全抗体 (antibody, human IgG1, kappa, V domains shown)
VH: QVQLVQSGAEVKKPGASVKVSCKASGYAYSNYGISWVRQAPGQGLEWMGWISTYSGNTNYAKKFIGRVTMTTDTSTSTAYMELRSLRSDDTAVYYCARRVLRLDYWGQGTLVTVSS
VL: DIQMTQSPSSLSASVGDRVTITCRASQDIDSSLNWYQQKPGKAPKLLIYAASNRESGVPSRFSGSGSGTDFTLTISSLQPEDFATYYCQQWANMPGTFGQGTKVEIKR
Turning to B2, the binding entry (in assay [2]; in the assay with IL-17RA-ECD-His [3]) was “binds” each time.

B3: mAb-1全抗体 (antibody, human IgG1, kappa, V domains shown)
VH: QVQLVQSGAEVKKPGASVKVSCKASGYSYSNYGISWVRQAPGQGLEWMGWISTYSGNTNYSKKLKGRVTMTTDTSTSTAYMELRSLRSDDTAVYYCARRVLRLDYWGQGTLVTVSS
VL: DIQMTQSPSSLSASVGDRVTITCRASQDIDSSLNWYQQKPGKAPKLLIYAASNRESGVPSRFSGSGSGTDFTLTISSLQPEDFATYYCQQWANMPGTFGQGTKVEIKR
Regarding B3, the binding entry (in assay [2]; with IL-17RA-ECD-His [3]) was “binds” throughout.

B4: mAb-8单克隆纯化噬菌体 (scFv, V domains shown)
VH: QVQLVQSGAEVKKPGASVKVSCKASGYGFASRGISWVRQAPGQGLEWMGWISTYSGNTNYAKKFEGRVTMTTDTSTSTAYMELRSLRSDDTAVYYCARRVLRLDYWGQGTLVTVSS
VL: DIQMTQSPSSLSASVGDRVTITCRASQSVHTGLNWYQQKPGKAPKLLIYGASNLQSGVPSRFSGSGSGTDFTLTISSLQPEDFATYYCQQFEHNPLTFGQGIKVEIK
B4: the binding result with IL-17RA-ECD-His [1] is recorded as “binds”.

B5: mAb-4单克隆纯化噬菌体 (scFv, V domains shown)
VH: QVQLVQSGAEVKKPGASVKVSCKASGYAYSNYGISWVRQAPGQGLEWMGWISTYSGNTNYAKKFIGRVTMTTDTSTSTAYMELRSLRSDDTAVYYCARRVLRLDYWGQGTLVTVSS
VL: DIQMTQSPSSLSASVGDRVTITCRASQDIDSSLNWYQQKPGKAPKLLIYAASNRESGVPSRFSGSGSGTDFTLTISSLQPEDFATYYCQQWANMPGTFGQGTKVEIK
B5: the binding result with IL-17RA-ECD-His [1] is “binds”.

B6: mAb-9全抗体 (antibody, human IgG1, kappa, V domains shown)
VH: QVQLVQSGAEVKKPGASVKVSCKASGYTWTSYGISWVRQAPGQGLEWMGWISTYSGNTNYAKKFLGRVTMTTDTSTSTAYMELRSLRSDDTAVYYCARRVLRLDYWGQGTLVTVSS
VL: DIQMTQSPSSLSASVGDRVTITCRASQSVHTGLNWYQQKPGKAPKLLIYGASNLQSGVPSRFSGSGSGTDFTLTISSLQPEDFATYYCQQFEHNPLTFGQGIKVEIKR
B6: the binding result (in assay [2]; with IL-17RA-ECD-His [3]) was “binds” each time.

B7: mAb-10单克隆纯化噬菌体 (scFv, V domains shown)
VH: QVQLVQSGAEVKKPGASVKVSCKASGYSFSSYGISWVRQAPGQGLEWMGWISTYSGNTNYAKKFKGRVTMTTDTSTSTAYMELRSLRSDDTAVYYCARRVLRLDYWGQGTLVTVSS
VL: DIQMTQSPSSLSASVGDRVTITCRASQSVHTGLNWYQQKPGKAPKLLIYGASNLQSGVPSRFSGSGSGTDFTLTISSLQPEDFATYYCQQFEHNPLTFGQGIKVEIK
Turning to B7, the binding entry in the assay with IL-17RA-ECD-His [1] is “binds”.

B8: mAb-9单克隆纯化噬菌体 (scFv, V domains shown)
VH: QVQLVQSGAEVKKPGASVKVSCKASGYTWTSYGISWVRQAPGQGLEWMGWISTYSGNTNYAKKFLGRVTMTTDTSTSTAYMELRSLRSDDTAVYYCARRVLRLDYWGQGTLVTVSS
VL: DIQMTQSPSSLSASVGDRVTITCRASQSVHTGLNWYQQKPGKAPKLLIYGASNLQSGVPSRFSGSGSGTDFTLTISSLQPEDFATYYCQQFEHNPLTFGQGIKVEIK
For the molecule B8, in the assay with IL-17RA-ECD-His [1], the binding entry is given as “binds”.

B9: mAb-11单克隆纯化噬菌体 (scFv, V domains shown)
VH: QVQLVQSGAEVKKPGASVKVSCKASGYAWTRYGISWVRQAPGQGLEWMGWISTYSGNTNYAKKFKGRVTMTTDTSTSTAYMELRSLRSDDTAVYYCARRVLRLDYWGQGTLVTVSS
VL: DIQMTQSPSSLSASVGDRVTITCRASQSVHTGLNWYQQKPGKAPKLLIYGASNLQSGVPSRFSGSGSGTDFTLTISSLQPEDFATYYCQQFEHNPLTFGQGIKVEIK
In the case of B9, the binding result with IL-17RA-ECD-His [1] was “binds”.

B10: mAb-8全抗体 (antibody, human IgG1, kappa, V domains shown)
VH: QVQLVQSGAEVKKPGASVKVSCKASGYGFASRGISWVRQAPGQGLEWMGWISTYSGNTNYAKKFEGRVTMTTDTSTSTAYMELRSLRSDDTAVYYCARRVLRLDYWGQGTLVTVSS
VL: DIQMTQSPSSLSASVGDRVTITCRASQSVHTGLNWYQQKPGKAPKLLIYGASNLQSGVPSRFSGSGSGTDFTLTISSLQPEDFATYYCQQFEHNPLTFGQGIKVEIKR
As to B10, the binding result (in assay [2]; in the assay with IL-17RA-ECD-His [3]) was “binds” in each case.

B11: mAb-10全抗体 (antibody, human IgG1, kappa, V domains shown)
VH: QVQLVQSGAEVKKPGASVKVSCKASGYSFSSYGISWVRQAPGQGLEWMGWISTYSGNTNYAKKFKGRVTMTTDTSTSTAYMELRSLRSDDTAVYYCARRVLRLDYWGQGTLVTVSS
VL: DIQMTQSPSSLSASVGDRVTITCRASQSVHTGLNWYQQKPGKAPKLLIYGASNLQSGVPSRFSGSGSGTDFTLTISSLQPEDFATYYCQQFEHNPLTFGQGIKVEIKR
For B11, the binding entry (in assay [2]; with IL-17RA-ECD-His [3]) was “binds” each time.

B12: mAb-11全抗体 (antibody, human IgG1, kappa, V domains shown)
VH: QVQLVQSGAEVKKPGASVKVSCKASGYAWTRYGISWVRQAPGQGLEWMGWISTYSGNTNYAKKFKGRVTMTTDTSTSTAYMELRSLRSDDTAVYYCARRVLRLDYWGQGTLVTVSS
VL: DIQMTQSPSSLSASVGDRVTITCRASQSVHTGLNWYQQKPGKAPKLLIYGASNLQSGVPSRFSGSGSGTDFTLTISSLQPEDFATYYCQQFEHNPLTFGQGIKVEIKR
For B12, the binding entry (in assay [2]; in the assay with IL-17RA-ECD-His [3]) was “binds” throughout.

Source of the values: patent CN111840217A.
